Here are results for 36 targets from the supplement of paper PMC12067093, “Discovery and optimisation of a covalent ligand for TRIM25 and its application to targeted protein ubiquitination” (Chemical Science, 2025).

Amino acid sequences for entries named in this document (tags omitted). A change or cut given only in a name is not applied to a line headed by its entry.
UniProt Q9Y316: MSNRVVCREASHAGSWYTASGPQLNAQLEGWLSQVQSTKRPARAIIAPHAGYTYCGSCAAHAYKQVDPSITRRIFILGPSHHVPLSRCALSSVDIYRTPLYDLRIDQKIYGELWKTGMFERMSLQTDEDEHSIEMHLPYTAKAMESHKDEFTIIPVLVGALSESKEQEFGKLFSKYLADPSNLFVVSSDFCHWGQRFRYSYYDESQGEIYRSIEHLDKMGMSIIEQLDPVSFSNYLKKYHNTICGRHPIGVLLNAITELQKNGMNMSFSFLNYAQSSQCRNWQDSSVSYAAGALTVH
UniProt Q9BTE3: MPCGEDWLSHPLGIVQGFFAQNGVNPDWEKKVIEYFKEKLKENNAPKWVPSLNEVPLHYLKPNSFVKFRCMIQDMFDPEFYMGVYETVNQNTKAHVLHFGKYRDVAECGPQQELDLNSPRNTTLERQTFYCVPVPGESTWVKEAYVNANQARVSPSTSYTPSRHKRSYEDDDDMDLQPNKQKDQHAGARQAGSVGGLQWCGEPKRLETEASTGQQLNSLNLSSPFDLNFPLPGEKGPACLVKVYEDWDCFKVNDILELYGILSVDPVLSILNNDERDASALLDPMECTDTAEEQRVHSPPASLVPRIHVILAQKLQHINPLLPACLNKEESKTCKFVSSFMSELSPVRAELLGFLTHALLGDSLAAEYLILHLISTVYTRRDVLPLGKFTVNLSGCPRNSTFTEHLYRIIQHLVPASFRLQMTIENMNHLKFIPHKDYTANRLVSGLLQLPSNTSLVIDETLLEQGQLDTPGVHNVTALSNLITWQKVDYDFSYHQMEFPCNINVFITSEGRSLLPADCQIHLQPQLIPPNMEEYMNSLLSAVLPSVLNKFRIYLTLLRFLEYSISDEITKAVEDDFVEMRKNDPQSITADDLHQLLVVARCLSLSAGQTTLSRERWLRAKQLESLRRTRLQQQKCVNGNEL
UniProt O60318: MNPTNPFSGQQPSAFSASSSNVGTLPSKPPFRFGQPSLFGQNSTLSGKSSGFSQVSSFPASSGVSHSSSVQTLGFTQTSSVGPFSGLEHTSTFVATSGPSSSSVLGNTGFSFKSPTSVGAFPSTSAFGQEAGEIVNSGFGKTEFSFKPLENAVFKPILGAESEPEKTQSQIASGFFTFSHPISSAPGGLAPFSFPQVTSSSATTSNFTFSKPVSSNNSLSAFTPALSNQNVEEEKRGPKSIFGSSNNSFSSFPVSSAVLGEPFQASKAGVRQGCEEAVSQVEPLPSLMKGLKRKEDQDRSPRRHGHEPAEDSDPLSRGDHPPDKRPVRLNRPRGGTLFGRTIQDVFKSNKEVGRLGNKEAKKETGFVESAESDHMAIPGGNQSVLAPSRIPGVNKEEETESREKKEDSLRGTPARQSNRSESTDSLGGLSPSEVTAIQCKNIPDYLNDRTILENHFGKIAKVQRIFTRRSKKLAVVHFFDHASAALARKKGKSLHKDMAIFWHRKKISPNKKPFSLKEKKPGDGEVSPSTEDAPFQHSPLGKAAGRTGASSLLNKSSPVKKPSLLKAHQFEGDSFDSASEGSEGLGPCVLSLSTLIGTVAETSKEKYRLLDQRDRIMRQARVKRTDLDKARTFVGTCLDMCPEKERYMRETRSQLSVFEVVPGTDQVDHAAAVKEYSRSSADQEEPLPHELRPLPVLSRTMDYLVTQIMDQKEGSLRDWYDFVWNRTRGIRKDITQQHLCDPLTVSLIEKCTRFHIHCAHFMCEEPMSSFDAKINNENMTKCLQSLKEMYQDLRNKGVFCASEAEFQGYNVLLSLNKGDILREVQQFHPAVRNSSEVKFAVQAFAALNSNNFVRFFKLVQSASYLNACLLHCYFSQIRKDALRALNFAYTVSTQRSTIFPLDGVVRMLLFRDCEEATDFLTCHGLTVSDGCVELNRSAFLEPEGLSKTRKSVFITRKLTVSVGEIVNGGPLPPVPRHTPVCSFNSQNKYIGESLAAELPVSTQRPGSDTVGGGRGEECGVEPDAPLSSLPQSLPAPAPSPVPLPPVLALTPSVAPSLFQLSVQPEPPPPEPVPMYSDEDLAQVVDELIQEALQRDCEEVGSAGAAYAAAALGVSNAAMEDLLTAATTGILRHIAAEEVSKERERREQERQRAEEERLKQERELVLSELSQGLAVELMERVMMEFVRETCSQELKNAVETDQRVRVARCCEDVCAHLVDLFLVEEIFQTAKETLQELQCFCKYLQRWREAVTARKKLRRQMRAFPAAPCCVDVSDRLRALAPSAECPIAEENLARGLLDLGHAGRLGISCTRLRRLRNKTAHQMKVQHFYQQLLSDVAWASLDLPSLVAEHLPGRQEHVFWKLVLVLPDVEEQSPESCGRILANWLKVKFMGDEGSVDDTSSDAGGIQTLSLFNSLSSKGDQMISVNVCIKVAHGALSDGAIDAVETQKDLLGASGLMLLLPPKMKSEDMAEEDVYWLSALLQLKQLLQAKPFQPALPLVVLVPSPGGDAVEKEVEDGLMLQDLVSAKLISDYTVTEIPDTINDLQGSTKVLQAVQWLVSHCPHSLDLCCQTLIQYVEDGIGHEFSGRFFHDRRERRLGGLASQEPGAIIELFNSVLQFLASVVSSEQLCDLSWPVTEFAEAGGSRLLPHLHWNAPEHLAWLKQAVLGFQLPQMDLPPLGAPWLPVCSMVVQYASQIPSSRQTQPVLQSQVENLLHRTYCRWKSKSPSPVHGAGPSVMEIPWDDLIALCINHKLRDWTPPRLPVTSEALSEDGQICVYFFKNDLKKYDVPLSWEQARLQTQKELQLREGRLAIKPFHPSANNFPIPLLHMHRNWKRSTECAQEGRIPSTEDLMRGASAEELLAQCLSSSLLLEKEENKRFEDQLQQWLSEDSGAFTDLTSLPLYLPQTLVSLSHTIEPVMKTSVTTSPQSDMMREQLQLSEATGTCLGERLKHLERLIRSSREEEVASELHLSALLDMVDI
UniProt Q8NA29: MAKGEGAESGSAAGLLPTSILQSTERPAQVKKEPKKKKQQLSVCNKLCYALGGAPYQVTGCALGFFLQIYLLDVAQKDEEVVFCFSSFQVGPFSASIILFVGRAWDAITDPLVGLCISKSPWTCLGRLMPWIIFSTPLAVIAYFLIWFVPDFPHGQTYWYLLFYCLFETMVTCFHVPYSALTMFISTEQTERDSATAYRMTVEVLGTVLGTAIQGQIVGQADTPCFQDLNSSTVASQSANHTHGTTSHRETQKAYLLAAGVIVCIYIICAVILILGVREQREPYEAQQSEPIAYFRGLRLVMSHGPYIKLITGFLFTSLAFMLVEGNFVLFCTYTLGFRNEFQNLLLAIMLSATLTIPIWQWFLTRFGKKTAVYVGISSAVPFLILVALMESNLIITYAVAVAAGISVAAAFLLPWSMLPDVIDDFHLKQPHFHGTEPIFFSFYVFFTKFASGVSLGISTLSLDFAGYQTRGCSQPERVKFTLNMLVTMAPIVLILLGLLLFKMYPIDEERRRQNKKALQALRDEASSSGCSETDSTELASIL
UniProt Q8IWI9: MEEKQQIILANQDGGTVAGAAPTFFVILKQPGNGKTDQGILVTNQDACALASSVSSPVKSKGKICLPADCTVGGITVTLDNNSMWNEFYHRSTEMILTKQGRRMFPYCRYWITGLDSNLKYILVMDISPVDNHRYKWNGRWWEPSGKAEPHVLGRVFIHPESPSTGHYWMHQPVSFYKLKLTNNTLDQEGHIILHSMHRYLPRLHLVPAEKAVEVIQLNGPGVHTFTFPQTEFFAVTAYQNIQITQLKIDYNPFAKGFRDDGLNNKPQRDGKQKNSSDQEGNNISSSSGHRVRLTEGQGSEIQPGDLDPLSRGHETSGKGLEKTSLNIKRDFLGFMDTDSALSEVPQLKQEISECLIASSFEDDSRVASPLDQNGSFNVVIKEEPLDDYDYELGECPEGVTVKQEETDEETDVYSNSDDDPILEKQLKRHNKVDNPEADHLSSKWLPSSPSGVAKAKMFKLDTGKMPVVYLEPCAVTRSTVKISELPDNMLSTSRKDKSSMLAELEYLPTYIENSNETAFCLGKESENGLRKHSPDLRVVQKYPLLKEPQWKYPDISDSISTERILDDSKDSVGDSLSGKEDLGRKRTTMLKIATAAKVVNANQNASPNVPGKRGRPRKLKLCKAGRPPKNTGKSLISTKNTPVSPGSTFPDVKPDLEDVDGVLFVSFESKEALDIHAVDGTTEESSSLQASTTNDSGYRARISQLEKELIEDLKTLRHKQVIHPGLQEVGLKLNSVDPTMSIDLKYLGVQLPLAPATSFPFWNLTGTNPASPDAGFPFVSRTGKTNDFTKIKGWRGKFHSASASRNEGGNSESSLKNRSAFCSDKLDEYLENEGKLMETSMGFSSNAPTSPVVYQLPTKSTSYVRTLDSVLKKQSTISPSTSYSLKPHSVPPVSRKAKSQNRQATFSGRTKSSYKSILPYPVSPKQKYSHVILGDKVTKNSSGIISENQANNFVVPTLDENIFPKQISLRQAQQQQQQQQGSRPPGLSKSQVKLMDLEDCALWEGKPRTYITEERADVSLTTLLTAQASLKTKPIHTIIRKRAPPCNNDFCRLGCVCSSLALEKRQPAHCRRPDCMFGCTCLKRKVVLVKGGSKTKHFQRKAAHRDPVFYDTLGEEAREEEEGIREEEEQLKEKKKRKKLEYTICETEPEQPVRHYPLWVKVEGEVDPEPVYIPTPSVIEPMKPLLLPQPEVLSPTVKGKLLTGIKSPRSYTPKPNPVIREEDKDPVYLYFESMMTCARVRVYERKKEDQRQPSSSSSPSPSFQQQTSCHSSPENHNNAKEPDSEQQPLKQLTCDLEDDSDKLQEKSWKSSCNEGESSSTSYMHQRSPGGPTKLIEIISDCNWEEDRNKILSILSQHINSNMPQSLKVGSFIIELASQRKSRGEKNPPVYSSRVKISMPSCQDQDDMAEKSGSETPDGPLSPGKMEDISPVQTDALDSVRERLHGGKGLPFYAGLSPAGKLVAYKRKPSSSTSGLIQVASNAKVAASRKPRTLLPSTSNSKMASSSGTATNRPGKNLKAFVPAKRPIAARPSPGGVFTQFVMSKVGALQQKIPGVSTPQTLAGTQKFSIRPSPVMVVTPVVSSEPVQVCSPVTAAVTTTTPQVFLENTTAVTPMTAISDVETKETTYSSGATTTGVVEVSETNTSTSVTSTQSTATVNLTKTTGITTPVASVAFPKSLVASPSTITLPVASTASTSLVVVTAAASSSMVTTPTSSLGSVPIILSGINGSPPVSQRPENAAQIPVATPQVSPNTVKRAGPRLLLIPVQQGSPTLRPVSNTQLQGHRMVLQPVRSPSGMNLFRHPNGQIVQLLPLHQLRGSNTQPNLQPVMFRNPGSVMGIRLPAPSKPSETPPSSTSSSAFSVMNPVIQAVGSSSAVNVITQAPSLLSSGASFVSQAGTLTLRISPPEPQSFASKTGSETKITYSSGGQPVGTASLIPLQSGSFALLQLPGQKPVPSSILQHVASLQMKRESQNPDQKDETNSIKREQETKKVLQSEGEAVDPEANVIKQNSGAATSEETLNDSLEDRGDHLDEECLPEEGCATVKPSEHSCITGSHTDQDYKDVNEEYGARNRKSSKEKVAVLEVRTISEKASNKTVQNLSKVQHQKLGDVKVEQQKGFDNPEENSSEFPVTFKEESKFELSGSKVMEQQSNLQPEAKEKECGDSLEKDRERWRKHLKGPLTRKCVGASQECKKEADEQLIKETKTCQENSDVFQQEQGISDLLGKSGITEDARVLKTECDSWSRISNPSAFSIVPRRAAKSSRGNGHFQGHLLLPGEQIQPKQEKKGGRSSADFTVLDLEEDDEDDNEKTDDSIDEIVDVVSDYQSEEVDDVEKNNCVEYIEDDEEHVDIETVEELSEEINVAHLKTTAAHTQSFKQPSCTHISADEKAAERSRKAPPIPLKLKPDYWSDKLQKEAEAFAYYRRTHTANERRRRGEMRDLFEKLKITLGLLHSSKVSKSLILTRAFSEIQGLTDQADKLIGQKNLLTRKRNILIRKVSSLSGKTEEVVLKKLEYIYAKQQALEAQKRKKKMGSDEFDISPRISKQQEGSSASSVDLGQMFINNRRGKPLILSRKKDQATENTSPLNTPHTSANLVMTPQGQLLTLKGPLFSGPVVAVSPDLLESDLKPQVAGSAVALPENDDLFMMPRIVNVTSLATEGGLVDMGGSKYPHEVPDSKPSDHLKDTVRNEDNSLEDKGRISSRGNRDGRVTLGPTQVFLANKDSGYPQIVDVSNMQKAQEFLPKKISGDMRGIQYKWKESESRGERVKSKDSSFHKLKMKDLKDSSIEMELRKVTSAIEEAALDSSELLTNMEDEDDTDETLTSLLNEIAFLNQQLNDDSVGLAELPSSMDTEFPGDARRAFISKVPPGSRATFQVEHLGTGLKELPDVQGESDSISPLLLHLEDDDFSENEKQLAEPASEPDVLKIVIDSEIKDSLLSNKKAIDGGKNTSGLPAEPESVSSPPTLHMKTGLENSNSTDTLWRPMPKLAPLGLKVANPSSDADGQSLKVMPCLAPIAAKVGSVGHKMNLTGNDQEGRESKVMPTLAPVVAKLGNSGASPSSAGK

This is one part of the list.

Compound in this experiment: Cc1cc(ccc1-c1ccccc1)C(=O)N1CCCN(CC1)C(=O)CCl [compound 10]
Nature of the experiment: probe-labelled cysteine peptide fold change vs DMSO (competition) (log2 fold change); higher = less target engagement (more negative = stronger competition). Conditions: THP-1, incubation time: 4 h.
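Further: competitive profiling in live THP-1 cells: cysteine peptides tagged with an iodoacetamide desthiobiotin (IA-DTB) probe, intensity after compound treatment relative to DMSO-treated cells.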

For “METTL13_Q8N6R0_617_SILTPEGVFILNLVCR (UniProt Q8N6R0)”, the “probe-labelled cysteine peptide fold change” value amounted to 0.233 (10 µM) and 0.364 (50 µM).
On to “MEN1_O00255_334_TYYRDEHIYPYMYLAGYHCR (UniProt O00255)”, for which the “probe-labelled cysteine peptide fold change” value by setting is: (10 µM) -0.045; (50 µM) -0.0265.
As for “METTL13_Q8N6R0_652_IEGEVNEILFCQLHPEQK (UniProt Q8N6R0)”, the “probe-labelled cysteine peptide fold change” value (10 µM) was found to be 0.154 and the “probe-labelled cysteine peptide fold change” value (50 µM) was -0.0266.
As for “MCM5_P33992_197_CNTDQAGRPK (UniProt P33992)”, the “probe-labelled cysteine peptide fold change” value reads like this: (10 µM) -0.0288; (50 µM) -0.14.
As for “MEMO1_Q9Y316_58_AIIAPHAGYTYCGSCAAHAYK (UniProt Q9Y316)”, the “probe-labelled cysteine peptide fold change” value worked out at 0.0808 (10 µM) and 0.0468 (50 µM).
“MECR_Q9BV79_263_LALNCVGGK (UniProt Q9BV79)”: the “probe-labelled cysteine peptide fold change” value was -0.254 (10 µM) and -0.178 (50 µM).
For “MCMBP_Q9BTE3_325_LQHINPLLPACLNK (UniProt Q9BTE3)”, in that order: -0.451 and -1.87.
As for “MDN1_Q9NU22_2784_EVQTVSEHIQNCLGSQTGGFAGIK (UniProt Q9NU22)”, the “probe-labelled cysteine peptide fold change” value reads like this: (10 µM) 0.231; (50 µM) 0.12.
Consider “METAP2_P50579_468_GSYTAQFEHTILLRPTCK (UniProt P50579)”, for which the “probe-labelled cysteine peptide fold change” value (10 µM) was -0.244 and the “probe-labelled cysteine peptide fold change” value (50 µM) was determined as 0.0676.
Turning to “MEMO1_Q9Y316_88_CALSSVDIYR (UniProt Q9Y316)”, the “probe-labelled cysteine peptide fold change” value reads like this: (10 µM) 0.112; (50 µM) -0.0554.
In the case of “MED23_Q9ULK4_284_DMVCNMLGLNK (UniProt Q9ULK4)”, the “probe-labelled cysteine peptide fold change” value (10 µM) came out at 0.0951 and the “probe-labelled cysteine peptide fold change” value (50 µM) is -0.279.
As to “MCM6_Q14566_158+161_THPVHPELVSGTFLCLDCQTVIR (UniProt Q14566)”, the “probe-labelled cysteine peptide fold change” value is -0.0458 (10 µM) and -0.416 (50 µM).
Consider “MCM3AP_O60318_1839_STECAQEGR (UniProt O60318)”, for which the “probe-labelled cysteine peptide fold change” value (10 µM) is -0.064 and the “probe-labelled cysteine peptide fold change” value (50 µM) is -0.0739.
“MDH2_P40926_275_EGVVECSFVK (UniProt P40926)”: the “probe-labelled cysteine peptide fold change” value (10 µM) was 0.0695 and the “probe-labelled cysteine peptide fold change” value (50 µM) came to 0.0885.
With “MEPCE_Q7L2J0_419_KFQYGNYCK (UniProt Q7L2J0)”, the “probe-labelled cysteine peptide fold change” value runs as follows: (10 µM) -0.172; (50 µM) -0.149.
Consider “MFSD2A_Q8NA29_531_ALQALRDEASSSGCSETDSTELASIL (UniProt Q8NA29)”, for which the “probe-labelled cysteine peptide fold change” value was -0.0148 (10 µM) and 0.377 (50 µM).
For “METTL7B_Q6UX53_202+203_HIGDGCCLTR (UniProt Q6UX53)”, in that order: -0.127 and -0.399.
As for “MELTF_P08582_545_CVGNSQER (UniProt P08582)”, the “probe-labelled cysteine peptide fold change” value (10 µM) is 0.144 and the “probe-labelled cysteine peptide fold change” value (50 µM) was 0.00114.
As to “MCL1_Q07820_16_NAVIGLNLYCGGAGLGAGSGGATRPGGR (UniProt Q07820)”, the “probe-labelled cysteine peptide fold change” value was found to be 0.0416 (10 µM) and 0.263 (50 µM).
“MFSD2A_Q8NA29_44_KQQLSVCNK (UniProt Q8NA29)”: the “probe-labelled cysteine peptide fold change” value by setting is: (10 µM) -0.432; (50 µM) -0.586.
For “MCM6_Q14566_161_THPVHPELVSGTFLCLDCQTVIRDVEQQFK (UniProt Q14566)”, the “probe-labelled cysteine peptide fold change” value (10 µM) came out at 0.14 and the “probe-labelled cysteine peptide fold change” value (50 µM) is -0.457.
Take “MDN1_Q9NU22_5386_QYQICLAIDDSSSMVDNHTK (UniProt Q9NU22)”: the “probe-labelled cysteine peptide fold change” value (10 µM) worked out at 0.247 and the “probe-labelled cysteine peptide fold change” value (50 µM) stood at 0.136.
For “MCCC2_Q9HCC0_392_KGTHFVQLCCQR (UniProt Q9HCC0)”, the “probe-labelled cysteine peptide fold change” value is -0.0989 (10 µM) and -0.324 (50 µM).
As to “MCMBP_Q9BTE3_636_CVNGNEL (UniProt Q9BTE3)”, the “probe-labelled cysteine peptide fold change” value (10 µM) is -0.292 and the “probe-labelled cysteine peptide fold change” value (50 µM) is -0.488.
Take “MCM3AP_O60318_1864_GASAEELLAQCLSSSLLLEK (UniProt O60318)”: the “probe-labelled cysteine peptide fold change” value (10 µM) is -0.168 and the “probe-labelled cysteine peptide fold change” value (50 µM) was 0.342.
For the target “METAP1_P53582_174_PGVTTEEIDHAVHLACIAR (UniProt P53582)”, the “probe-labelled cysteine peptide fold change” value (10 µM) turned out to be 0.143 and the “probe-labelled cysteine peptide fold change” value (50 µM) was determined as 0.146.
In the case of “MGAT2_Q10469_386_KTCRPSTQSAQIESLLNNNK (UniProt Q10469)”, the “probe-labelled cysteine peptide fold change” value (10 µM) was -0.194 and the “probe-labelled cysteine peptide fold change” value (50 µM) was -0.657.
Consider “METAP1_P53582_255_LVQTTYECLMQAIDAVK (UniProt P53582)”, for which the “probe-labelled cysteine peptide fold change” value runs as follows: (10 µM) 0.366; (50 µM) 0.305.
For the target “MED15_Q96RN5_618_QQYLCQPLLDAVLANIR (UniProt Q96RN5)”, the “probe-labelled cysteine peptide fold change” value reads like this: (10 µM) 0.19; (50 µM) 0.0836.
Consider “MGA_Q8IWI9_355_QEISECLIASSFEDDSR (UniProt Q8IWI9)”, for which the “probe-labelled cysteine peptide fold change” value is 0.127 (10 µM) and -0.409 (50 µM).
For “MGA_Q8IWI9_1071_RQPAHCR (UniProt Q8IWI9)”, the “probe-labelled cysteine peptide fold change” value runs as follows: (10 µM) -0.00175; (50 µM) -0.352.
“MEFV_O15553_395_QVQLLFCEDHDEPICLICSLSQEHQGHR (UniProt O15553)”: the “probe-labelled cysteine peptide fold change” value (10 µM) was found to be 0.0824 and the “probe-labelled cysteine peptide fold change” value (50 µM) was 0.309.
“MEPCE_Q7L2J0_419_FQYGNYCK (UniProt Q7L2J0)”: the “probe-labelled cysteine peptide fold change” value runs as follows: (10 µM) -0.364; (50 µM) 0.281.
Consider “MCM6_Q14566_180_YTQPNICR (UniProt Q14566)”, for which the “probe-labelled cysteine peptide fold change” value is, setting by setting: (10 µM) 0.0225; (50 µM) -0.245.
Turning to “MED7_O43513_197_TEPMDADDSNNCTGQNEHQR (UniProt O43513)”, the “probe-labelled cysteine peptide fold change” value is -0.198 (10 µM) and 0.0445 (50 µM).
For the target “MEFV_O15553_375_KSPGSLSPQPLPQCK (UniProt O15553)”, the “probe-labelled cysteine peptide fold change” value is -0.229 (10 µM) and -1.2 (50 µM).
